Data on 70 compounds can be found in the supplement of paper PMC7024190.

Structures can show the parent of a compound that is named as a salt. This is one part of the list. Single values are uncertain here, since repeats match poorly.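 The cells were human embryonic kidney cells carrying a Renilla luciferase gene, driven by the HSV-TK promoter, on a plasmid put in briefly by transfection. This is the first-round screen of about ten thousand compounds, looking for ones that raise reporter output.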

This assay has as its system HEK 293FT. The assay can be described thus: log relative Renilla luciferase luminescence (reporter expression vs reference, reference not stated) (log (base not stated)); higher = higher recombinant reporter expression. The note with it: 10 µM; time after transfection 48 h.
For the compound `Nc1nc2[nH]cnc2c(=S)[nH]1` [thioguanine], the log was found to be 0.0176.
Consider `CN(C)C(=O)C(CCN1CCC(O)(c2ccc(Cl)cc2)CC1)(c1ccccc1)c1ccccc1` [loperamide hydrochloride], for which the log was determined as 0.164.
As to `Cc1c(OCC(F)(F)F)ccnc1C[S@@+]([O-])c1nc2ccccc2[nH]1` [dexlansoprazole], the log is -0.0767.
Under `O=c1ccc2cc(O)c(O)cc2o1` [esculetin] stands 0.182; under `C[C@H](CCC(=O)O)[C@H]1CC[C@H]2[C@@H]3[C@H](O)C[C@@H]4C[C@H](O)CC[C@]4(C)[C@H]3C[C@H](O)[C@]12C` [cholic acid], 0.0715.
For the compound `CC(=O)OC1CCC2(C)C(=CCC3C2CCC2(C)C(C(C)CCCC(C)C)CCC32)C1` (stereo not given) [cholesteryl acetate], the log is -0.0193.
Regarding `CC(C)=CCC[C@@H](C)[C@H]1CC[C@@]2(C)C3=C(CC[C@]12C)[C@@]1(C)CC[C@H](O)C(C)(C)[C@@H]1CC3` [lanosterol], the log is 0.119.
As to `O=C(OCC(O)CO)c1ccccc1Nc1ccnc2cc(Cl)ccc12` (stereo not given) [glafenine], the log was -0.0172.
Regarding `CC(C(=O)O)c1ccc(-c2ccccc2)c(F)c1` (stereo not given) [flurbiprofen], the log was found to be 0.0858.
As to `Cc1cc(O)c2c(c1)C(=O)c1cccc(O)c1C2=O` [chrysophanol], the log was determined as 0.0319.
For `COc1cc2c(N3CCN(C(=O)Nc4ccc(OC(C)C)cc4)CC3)ncnc2cc1OCCCN1CCCCC1` [tandutinib] the value was 0.179; for `C[C@H]1O[C@@H](O[C@H]2[C@@H](O)C[C@H](O[C@H]3[C@@H](O)C[C@H](O[C@H]4CC[C@@]5(C)[C@H](CC[C@@H]6[C@@H]5C[C@@H](O)[C@]5(C)[C@@H](C7=CC(=O)OC7)CC[C@]65O)C4)O[C@@H]3C)O[C@@H]2C)C[C@H](O)[C@@H]1O` [digoxin], -1.6; for `COc1cc([S+](C)[O-])ccc1-c1nc2cccnc2[nH]1` (stereo not given) [sulmazole], -0.0137.
Under `NC[C@@H]1O[C@H](O[C@H]2[C@@H](O)[C@H](O[C@@H]3[C@@H](O)[C@H](N)C[C@H](N)[C@H]3O[C@H]3O[C@H](CO)[C@@H](O)[C@H](O)[C@H]3N)O[C@@H]2CO)[C@H](N)[C@@H](O)[C@@H]1O` [paromomycin sulfate] stands -0.0516; under `COc1cc(C)c2c(c1C=O)Oc1c(c(C)c(O)c3c1C(O)OC3=O)OC2=O` (stereo not given) [stictic acid], 0.0121; under `CC[C@]1(O)C[C@H]2CN(CCc3c([nH]c4ccccc34)[C@@](C(=O)OC)(c3cc4c(cc3OC)N(C=O)[C@H]3[C@@](O)(C(=O)OC)[C@H](OC(C)=O)[C@]5(CC)C=CCN6CC[C@]43[C@@H]65)C2)C1` [vincristine sulfate], -0.262.
Consider `COc1ccccc1OCC(O)CO` (stereo not given) [guaifenesin], for which the log was found to be 0.13.
Under `Cc1cc(=O)[nH]c(=S)[nH]1` [methylthiouracil] stands 0.0868; under `CC(=O)[C@H]1CC[C@H]2[C@@H]3C=CC4=CC(=O)CC[C@@]4(C)[C@@H]3CC[C@]12C` [dydrogesterone], -0.0915.
Take `CN1[C@@H]2CC[C@H]1C[C@@H](OC(=O)c1c[nH]c3ccccc13)C2` [tropisetron hydrochloride]: the log was -0.00296.
For `Cc1cccc(C)c1OCC(C)N` (stereo not given) [mexiletine hydrochloride], the log was 0.134.
Take `COc1ccc(/C=C/C(=O)Nc2ccccc2C(=O)O)cc1OC` [tranilast]: the log was 0.0457.
In the case of `CC(=O)N1CCCC1C(=O)O` (stereo not given) [n-acetylproline], the log was -0.0274.
Consider `CCOC(=O)C1=C(COCCN)NC(C)=C(C(=O)OC)C1c1ccccc1Cl` (stereo not given) [amlodipine besylate], for which the log came to 0.0166.
Consider `Oc1ccc(/C=C/c2cc(O)cc(O)c2)cc1` [resveratrol], for which the log was -0.333.
Regarding `CC1(C)C2CCC1(C)C(O)C2` (stereo not given) [borneol], the log was determined as 0.0192.
On to `Oc1c(Cl)cc(Cl)c(Cl)c1Cc1c(O)c(Cl)cc(Cl)c1Cl` [hexachlorophene], for which the log worked out at 0.215.
As to `Cc1c(N(C)C)c(=O)n(-c2ccccc2)n1C` [aminopyrine], the log was -1.3.
`CCN(CC)CCNC(=O)c1cc(Cl)c(N)cc1OC` [metoclopramide hydrochloride]: the log stood at 0.138.
For `COc1ccc(-c2oc3cc(OC)c(OC)c(OC)c3c(=O)c2OC)cc1` [3,4',5,6,7-pentamethoxyflavone] the value was 0.33; for `NCCCNCCCCNCCCN` [spermine], 0.0906.
As to `CC(C)(CO)C(O)C(=O)NCCCO` (stereo not drawn) [panthenol (dl)], the log was -0.0569.
For the compound `CCOc1ccc2ccccc2c1C(=O)N[C@@H]1C(=O)N2[C@@H]1SC(C)(C)[C@@H]2C(=O)O` [nafcillin sodium], the log was 0.0837.
Consider `Cn1cnc2c1c(=O)[nH]c(=O)n2C` [theobromine], for which the log was 0.192.
With `CC1=NN(c2ccccc2)C(=O)C1` [edaravone], the log is 0.0552.
`C[n+]1c2cc(N)ccc2cc2ccc(N)cc21` [acriflavinium hydrochloride]: the log was -0.59.
`O=C(N[C@H](CO)[C@H](O)c1ccc([N+](=O)[O-])cc1)C(Cl)Cl` [chloramphenicol]: the log was -0.151.
Take `O=C(O)CCNC(=O)c1ccccc1` [betamipron]: the log amounted to 0.0382.
In the case of `CCC[C@@H]1C[C@@H](C(=O)N[C@@H]([C@H]2O[C@H](SC)[C@H](O)[C@@H](O)[C@H]2O)[C@H](C)Cl)N(C)C1` [clindamycin hydrochloride], the log was -0.0491.
Regarding `COC(=O)C(Cc1ccccc1)NC(=O)/C(=C1/OC(=O)C(c2ccccc2)=C1O)c1ccccc1` (stereo not given) [rhizocarpic acid], the log was -0.0912.
For `CN(C)CCC=C1c2ccccc2COc2ccccc21` [doxepin hydrochloride], the log is -0.223.
For the compound `CC(C)[N+](C)(CCOC(=O)C1c2ccccc2Oc2ccccc21)C(C)C` [propantheline bromide], the log was -0.0604.
As to `CN1CCC[C@@H]1Cc1c[nH]c2ccc(CCS(=O)(=O)c3ccccc3)cc12` [eletriptan hydrobromide], the log was determined as 0.0116.
With `Nc1ccccc1S(N)(=O)=O` [2-aminobenzenesulfonamide], the log amounted to 0.0464.
Consider `CC1=CC(=O)C(C(C)C)=CC1=O` [thymoquinone], for which the log was determined as 0.00551.
For `OCc1cccnc1` [nicotinyl alcohol tartrate] the value was 0.0534.
As to `O=Cc1ccccc1O[C@@H]1O[C@H](CO)[C@@H](O)[C@H](O)[C@H]1O` [helicin], the log is 0.053.
With `NS(=O)(=O)c1cc2c(cc1Cl)NC(C(Cl)Cl)NS2(=O)=O` (stereo not given) [trichlormethiazide], the log is -0.178.
As to `CN[C@@H]1[C@H](O)[C@H](NC)[C@H]2O[C@@]3(O)C(=O)C[C@@H](C)O[C@H]3O[C@@H]2[C@H]1O` [spectinomycin hydrochloride], the log was determined as 0.106.
On to `CN[C@H](CC(=O)O)C(=O)O` [n-methyl-d-aspartic acid (nmda)], for which the log was 0.165.
For `Cc1onc(-c2ccccc2Cl)c1C(=O)N[C@@H]1C(=O)N2[C@@H]1SC(C)(C)[C@@H]2C(=O)O` [cloxacillin sodium] the value was -0.12.
As to `CC12CCC(CC1=O)C2(C)C` (stereo not given) [camphor (1r)], the log is -0.0201.
For `C[C@@H]1NC(=O)[C@@H](N)CNC(=O)[C@H](C2CCNC(=N)N2)NC(=O)/C(=C/NC(N)=O)NC(=O)[C@H](CNC(=O)CC(N)CCCN)NC1=O.N=C1NCC[C@H]([C@@H]2NC(=O)/C(=C/NC(N)=O)NC(=O)[C@H](CNC(=O)C[C@@H](N)CCCN)NC(=O)[C@H](CO)NC(=O)[C@@H](N)CNC2=O)N1` [capreomycin sulfate], the log was -0.000473.
On to `CN[C@@H]1[C@@H](O[C@H]2O[C@H](CO)[C@@H](N)[C@H](O)[C@H]2O)OC2C[C@@H](N)[C@@H](O[C@H]3[C@H](O)[C@@H](O)[C@H](N)C[C@@H]3N)OC2[C@@H]1O` (stereo not given in full) [apramycin sulfate], for which the log was -0.00296.
For `CC1(C)O[C@H]2CC(=O)OC[C@]23[C@H]2CC[C@@]4(C)[C@H](c5ccoc5)OC(=O)[C@H]5O[C@]54[C@]2(C)C(=O)C[C@@H]13` [limonin] the value was -0.601.
In the case of `CC(=O)Oc1cc(OC(C)=O)c2c(c1)O[C@H](c1ccc(OC(C)=O)c(OC(C)=O)c1)[C@@H](OC(C)=O)C2` [catechin pentaacetate], the log was 0.101.
In the case of `CCCCCCOC(=O)NC(=N)c1ccc(NCc2nc3cc(C(=O)N(CCC(=O)OCC)c4ccccn4)ccc3n2C)cc1` [dabigatran etexilate mesylate], the log is -0.0801.
With `CC(C)CCC[C@@H](C)[C@H]1CC[C@H]2[C@@H]3CC(=O)[C@H]4C[C@@H](O)CC[C@]4(C)[C@H]3CC[C@]12C` [5alpha-cholestan-3beta-ol-6-one], the log came out at 0.0583.
As to `NCCCC(=O)O` [gamma-aminobutyric acid], the log is -1.28.
As for `CCCCCCCCCCCCCCCCCCCCCCO` [docosanol], the log is -0.075.
With `COc1ccc(O)cc1` [mequinol], the log is -0.0195.
Consider `CC(=O)NC(Cc1ccccc1)C(=O)O` (stereo not given) [afalanine], for which the log was 0.0919.
For `O=C1/C(=C/c2cccs2)CCC/C1=C\c1cccs1` [tenylidone] the value was 0.066.
Take `C=CC(C1=CC(=O)C(OC)=CC1=O)c1ccccc1` (stereo not given) [4-methoxydalbergione]: the log is 0.121.
As to `C[C@H]1c2cccc(O)c2C(=O)C2=C(O)[C@]3(O)C(=O)C(C(N)=O)=C(O)[C@@H](N(C)C)[C@@H]3[C@@H](O)[C@@H]21` [doxycycline hydrochloride], the log was -0.144.
Take `Clc1ccc(C(Cn2ccnc2)OCc2ccsc2Cl)c(Cl)c1` (stereo not given) [tioconazole]: the log was 0.0192.
`C[C@](N)(Cc1ccc(O)c(O)c1)C(=O)O` [methyldopa]: the log was 0.0773.
Turning to `O=C(O)C(=O)O.[NH-][C@@H]1CCCC[C@H]1[NH-].[Pt+2]` [oxaliplatin], the log was -0.0488.
Turning to `Cc1ccc(NC(=O)c2ccc(CN3CCN(C)CC3)cc2)cc1Nc1nccc(-c2cccnc2)n1` [imatinib], the log turned out to be 0.0623.
Regarding `CCOC(=O)COc1ccc2c(=O)cc(-c3ccccc3)oc2c1` [efloxate], the log came out at 0.0766.
